From publication PMC9012292
No constants are given. Whether binding was seen depends on the method and setting. In cells and extracts the contact can be indirect. Some binding calls cover weakened binding; strength is not graded here.

The chains behind the UniProt entries cited, without tags or fusion partners.
UniProt O55143: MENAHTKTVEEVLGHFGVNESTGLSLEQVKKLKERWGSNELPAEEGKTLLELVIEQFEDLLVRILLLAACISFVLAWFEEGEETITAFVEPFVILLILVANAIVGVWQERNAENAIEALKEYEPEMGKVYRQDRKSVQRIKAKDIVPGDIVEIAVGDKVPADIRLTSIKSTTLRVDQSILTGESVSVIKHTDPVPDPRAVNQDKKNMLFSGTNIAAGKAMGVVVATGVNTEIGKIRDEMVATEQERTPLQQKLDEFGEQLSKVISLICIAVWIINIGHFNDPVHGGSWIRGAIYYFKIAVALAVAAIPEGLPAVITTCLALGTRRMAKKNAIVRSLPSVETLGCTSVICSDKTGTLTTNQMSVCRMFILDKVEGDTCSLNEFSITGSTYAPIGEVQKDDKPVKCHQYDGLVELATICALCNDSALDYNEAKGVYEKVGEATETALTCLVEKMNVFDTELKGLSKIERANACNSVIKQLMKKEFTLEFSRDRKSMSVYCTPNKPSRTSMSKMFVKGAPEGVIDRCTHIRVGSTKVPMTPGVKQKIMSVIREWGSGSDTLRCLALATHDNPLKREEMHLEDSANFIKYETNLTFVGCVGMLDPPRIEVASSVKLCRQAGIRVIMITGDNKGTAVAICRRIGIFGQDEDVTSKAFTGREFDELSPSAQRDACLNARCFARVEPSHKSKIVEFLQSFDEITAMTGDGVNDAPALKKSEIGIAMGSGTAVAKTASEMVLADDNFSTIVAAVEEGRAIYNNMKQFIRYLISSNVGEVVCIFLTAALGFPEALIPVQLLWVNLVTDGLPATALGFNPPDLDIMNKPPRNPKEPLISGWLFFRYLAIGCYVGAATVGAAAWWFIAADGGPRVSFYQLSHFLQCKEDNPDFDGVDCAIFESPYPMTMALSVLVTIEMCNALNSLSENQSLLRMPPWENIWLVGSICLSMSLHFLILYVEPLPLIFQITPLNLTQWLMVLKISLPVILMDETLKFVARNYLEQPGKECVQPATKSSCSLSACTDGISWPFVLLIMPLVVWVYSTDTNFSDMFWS

Target: sarco/ER Ca2+-ATPase 2 (SERCA2) (mouse (endogenous in mouse cortex)) (UniProt O55143)
Experiment: co-IP; mouse cortex tissue lysate; 1 ug Nnat, IP3R or SERCA2 antibody overnight at 4°C, protein G beads 3 hours at 4°C; immunoblot with indicated antibodies

B1: neuronatin (Nnat) (protein, UniProt Q61979 1-81)
chain: MAAVAAASAELLIIGWYIFRVLLQVFLECCIYWVGFAFRNPPGTQPIARSEVFRYSLQKLAHTVSRTGRQVLGERRQRAPN
**Q.** Which binding does the source give for B1 here?
**A.** Its binding is “binds”.
